## Primary screen of a compound library

Measurements from “University of Dundee, Small-Polar-MMV Screening Library” (2021), ChEMBL document CHEMBL3988442.

Mtb glucose medium: 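Growth of Mycobacterium tuberculosis over 3 days (7H9 medium with glucose and tyloxapol); the read-out is not stated. Compounds at 50 µM. Higher reads as more growth inhibition (inferred: compounds with an IC50 in retests scored well above the rest). About 69,000 compounds were tested under these conditions; 1.1% (about 760) showed 50% or more at least once.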
Mtb cholesterol medium: 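Whole-cell growth test on Mycobacterium tuberculosis, read after 4 days in a medium based on cholesterol and the lipid DPPC; the read-out is not stated. Concentration: 50 µM. Direction is inferred from retests: higher values go with more growth inhibition. About 69,000 compounds were tested under these conditions; 0.54% (about 370) showed 50% or more at least once.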

Values are the deposited “Percent Effect”, in %.
The controls that fix the scale are not given in the record; negative values are as filed.
The compounds are a random part of those screened.
Two or more numbers in one place are separate tests of the same structure; such repeats can differ widely.

| structure | Mtb glucose medium | Mtb cholesterol medium |
|---|---|---|
| `CCc1nsc(N2CCCN(C(=O)c3ccc(OC)cc3)CC2)n1` | 4.558% and -1.628% | -14.16% |
| `CC(C)(C)NC(=O)C1(Cc2ccccc2-c2ccncc2)CCOCC1` | -12.5% | 23.49% |
| `CC(C)c1nnc(CN2CCCC3(CC2)CN(C)C(=O)O3)o1` (stereo unspecified) | 3.48% | 24.55% |
| `Cc1nn(CCC#N)c(C)c1CCC(=O)N(C)Cc1ccsc1` | -10.4% | -6.436% |
| `Cc1ccc(F)cc1-n1c(CN(C)S(C)(=O)=O)n[nH]c1=O` | -8.863% and -3.078% | -0.577% |
| `Cc1nc(CNC2CCc3nc(C(C)C)nn3C2)oc1C` (stereo unspecified) | 6.252% | 6.177% |
| `CCC1CN(C)c2ccccc2CN1C(=O)Nc1cccc(F)c1` (stereo unspecified) | -18.43% and 11.29% | 9.672% |
| `COc1cc(N2CCC3(CCCN3Cc3cnn(C)c3)CC2)ncn1.O=C(O)C(F)(F)F` | -6.415% and 3.436% | 18.07% |
| `Cc1cc(C(=O)NCC(F)(F)F)c2c(C3CCCN3)noc2n1` (stereo unspecified) | 22.65% | -1.85% |
| `CC(NC(=O)Nc1ccc(F)c(F)c1)c1nc[nH]n1` (stereo unspecified) | -1.578% and -7.828% | -7.77% |
| `Cc1ccccc1C(C(=O)N(C)CCc1cnn(C)c1)N(C)C` (stereo unspecified) | 7.155% | -17.74% |
| `Oc1ccc(Cl)cc1CNCc1ccccc1Cl` | -17.6% and 7.631% | 1.525% |
| `COc1c(CNCc2ccccc2CN2CCOCC2)c(C)nn1C` | 11.27% | 11.89% |
| `Cc1ccsc1C(=O)N1CCc2ncc(CN3CCCC3)n2CC1.O=C(O)C(F)(F)F` | -13.51% | -3.624% |
| `CCOCCCNC(=O)c1nc2c(s1)CCCN2c1ccc(C)nn1.O=C(O)C(F)(F)F` | 23.68% and 3.049% | 20.86% |
| `COc1ccc(CCNC(=O)NCc2cccc(C(N)=O)c2)cc1OC` | -4.56% and -34.01% | -13.55% |
| `CCc1nc(C)c(C(=O)NCCNc2ncccn2)s1` | -3.19% | -11.1% |
| `CS(=O)(=O)CCNCc1ccc(OCc2ccncc2)cc1` | -9.124% | -47.25% |
| `CCCn1cnc(S(=O)(=O)Nc2cccnc2-n2cccn2)c1` | 21.56% | -12.41% |
| `Cc1ccc(-c2ccccc2CC2(C(=O)NC(C)C)CCCNC2)cc1` (stereo unspecified) | 5.159% | 14.43% and 5.609% |
| `O=C(C1CC1)N1C[C@@H](F)[C@@H](OCc2nc3ccccc3o2)C1` | -11.67% and 6.51% | -9.271% |
| `Cc1cc2c(cc1C)C(NC1CC1)CCCO2` (stereo unspecified) | -4.924% and -0.4091% | -1.602% |
| `CC(Cn1cccn1)NCCCc1nc(-c2cccs2)no1` (stereo unspecified) | -4.31% | 0.5128% |
| `COc1ccccc1CN(C)C(=O)C[S+]([O-])Cc1cc(C)on1` (stereo unspecified) | 5.963% | 7.65% |
| `CCCS(=O)(=O)Nc1ccc2c(c1)OCC(C)(C)C(=O)N2C` | -8.557% and -4.356% | -20.73% |
| `O=C(O)C1(n2ccnc2)CCN(Cc2ccc3occc3c2)CC1` | -3.951% | -6.931% |
| `Cc1nn(C)c(C)c1C(C(=O)O)N1CC=C(c2ccccc2)CC1` (stereo unspecified) | -19.87% | -30.56% |
| `CCc1ncc(C(=O)NCCNc2ccncc2)s1` | 12.29% | -17.14% |
| `CN1CCN(Cc2ccncc2)C(=O)C12CCN(Cc1ccsc1)CC2.O=C(O)C(F)(F)F.O=C(O)C(F)(F)F.O=C(O)C(F)(F)F` | -2.552% | -4.971% and -0.7541% |
| `CN(C)c1ccc(CNC(=O)c2ccc(Cl)cc2F)cc1` | 33.35% and 53.5% | 0.44% |
| `Nc1ncc2c(n1)CN(C1CCCC1)C2=O` | 91.73% | 68.78% |
| `CC(=O)N1CCSCC1c1ccc(C)o1` (stereo unspecified) | -20.19% and 4.222% | -10.71% |
| `CC(C)c1nsc(N2CCSCC2)n1` | -0.6491% | 15.46% |
| `CN(Cc1cn2ccccc2n1)C1CCCN(c2cccnn2)C1` (stereo unspecified) | -26.52% | -16.3% |
| `CCCn1ncc(CN(CCN(C)C)Cc2ccsc2)c1C` | -24.48% | -24.04% |
| `CCn1cc(CN2CCCN(C(=O)Cc3ccc(C)nc3)CC2)cn1` | 1.52% | 5.264% |
| `Cc1n[nH]c(C2CN(C(=O)c3ccc(Cl)o3)CCO2)n1` (stereo unspecified) | 1.67% | 5.724% |
| `CCCn1cc(NC(=O)c2ccc(S(=O)(=O)CC)cc2)ccc1=O` | -11.62% | -5.443% |
| `CN(C(=O)c1ccncc1F)c1ccccc1S(C)(=O)=O` | 20.97% | 4.073% |
| `Cc1noc(C)c1CN1CCN(CC2CC2)c2ncccc2C1.O=C(O)C(F)(F)F.O=C(O)C(F)(F)F` | -0.06399% | -15.72% |
| `O=C(O)C1CC2(CCN(c3nccc4ccccc34)CC2)CN1` (stereo unspecified) | 4.744% | 11.5% |
| `CCOc1ccnc(N2CCN(Cc3ncccc3C)CC2)n1` | -9.794% | -17.63% |
| `CN(C)c1ccc(-c2cc(C(=O)O)cc(S(=O)(=O)NC3CC3)c2)cc1` | 25.21% | 29.46% and 3.72% |
| `CN1CCCc2cc(CNC(=O)c3cc[n+]([O-])cc3)ccc21` | 7.327% | 4.563% |
| `Cc1cc(N2CCC(NC(=O)CCc3cnn(C)c3)CC2)nc(C)n1` | 1.907% | -16.64% |
| `Cn1cc(C2CC(=O)NC23CCN(C(=O)NC2CC2)CC3)cn1` (stereo unspecified) | -9.036% | -8.567% |
| `[H][C@]12CNC[C@@]1(C(=O)NCCOc1ccccc1)CN(S(C)(=O)=O)C2` | -1.388% | -9.921% |
| `O=C(NCCC1COc2ccccc2O1)c1ccc(-c2cn[nH]c2)nc1` (stereo unspecified) | 18.56% | 23.09% |
| `Cc1nc2cc(F)cc(C(=O)N3CCN(CC(C)O)CC3)c2nc1C` (stereo unspecified) | -6.773% and -7.144% | 16.65% |
| `CCOC1CC2(CCN(C(=O)COC)CC2)c2cc(F)ccc21` (stereo unspecified) | -25.22% and -2.741% | -7.759% |
| `CCC(CC)c1cc(CNC(=O)N2CCC[C@@H]2CO)on1` | 0.6612% and -16.65% | 5.788% |
| `COc1ccc(-c2nc3c([nH]2)CCNC3C(=O)O)c2ccccc12` (stereo unspecified) | 7.794% | 16.78% and -14.4% |
| `CC(=O)NCC(=O)N1CCCC2(CCC(=O)N(CCc3c[nH]cn3)C2)C1` (stereo unspecified) | -30.42% and -10.51% | -27.93% |
| `O=c1c2cccc(C(F)(F)F)c2ncn1C1CCNC1` (stereo unspecified) | -31.42% | 9.606% |
| `Cc1nc(C)n(C2CCCN(C(=O)c3ccc(F)cc3F)C2)n1` (stereo unspecified) | -5.961% | -0.9944% and 0.02567% |
| `CC(C)N1CCC(Cc2cc(-c3cccc(C(=O)O)c3)ncn2)CC1` | 9.699% | -4.892% |
| `CC(=O)c1cccc(OCCCC(=O)N(C)CCc2ccncc2)c1` | -4.959% | 27.04% |
| `CCc1nc(CC(=O)N2CCCC2CN2CCCC2)cs1` (stereo unspecified) | -11.25% | -3.1% |
| `CC(c1cccc(S(N)(=O)=O)c1)N(C)CCOc1ccccc1` (stereo unspecified) | 25.59% | 9.804% |
| `O=C(O)C(F)(F)F.O=C(O)C(F)(F)F.[H][C@@]12CCN(Cc3ccccn3)[C@]1([H])CC[C@@H](c1nnc(C)o1)O2` | -26.76% and -0.7537% | -12.12% |
| `CCN1CCC2(C=C(C(=O)NC3CC3)c3ccccc32)CC1.O=C(O)C(F)(F)F` | 3.996% | 5.401% |